Record: PubChem BioAssay AID504784 (Drosophila RNAi Screening Center, 2011)

Aim: 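Fly genes whose silencing alters how much lipid cells keep in droplets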 (primary screen)
System: Drosophila Kc167 embryonic cells
Reagents: long dsRNA against Drosophila genes, about 250 ng dsRNA per well
Time to read-out: 4 days
Conditions: cells fed 400 µM oleic acid bound to BSA
Read-out: 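Cells imaged and segmented; ratio of lipid droplet area to nuclear area, log-transformed, then normalised as a B-score over the screen; higher means more stored lipid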
Scale: droplet/nuclear area B-score: higher = more stored lipid (overstorage)
The deposit covers about 17,000 reagents; shown is an unselected part of those with a known target gene and a result. 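Each column is one replicate's B-score; the combined score over replicates was not deposited, so single values may mislead.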 Reagents against one gene are numbered here. Names joined by + are all predicted targets of the reagent. No sequences are given here.

no.	target gene	dsRNA no.	droplet/nuclear area B-score, replicate 1	droplet/nuclear area B-score, replicate 2	droplet/nuclear area B-score, replicate 3
1	LPCAT (Lysophosphatidylcholine acyltransferase)	1	-0.18	-0.487	0.81
2	LPCAT (Lysophosphatidylcholine acyltransferase)	2	-0.206	1.79	0.447
3	etaTry (etaTrypsin)	1	-0.926	-0.19	
4	epsilonTry (epsilonTrypsin)	1	-1.64	-1.97	
5	CG34124	1	0.276	0.751	
6	CG18449	1	-0.487	-0.664	
7	TBC1d7 + mRpS24	1	1.2	1.15	
8	Hil (Hillarin)	1	-0.31	-0.657	
9	Hil (Hillarin)	2	-0.33	-0.0274	
10	HIP + HIP-R	1	-0.326		
11	CG12506	1	-0.75	-0.77	
12	Prdm13 (PR/SET domain 13)	1	-0.964	-1.24	
13	CG10864	1	-0.733	-0.149	
14	Grl43a (Gustatory receptor-like 43a)	1	0.811	2.57	
15	CG10383	1	-0.907	-1.26	
16	BBS5 (Bardet-Biedl syndrome 5)	1	0.593	-0.222	
17	CG6567 + CG4565	1	0.948	-0.903	
18	MBD-like (Methyl-CpG binding domain protein-like)	1	0.86	0.518	
19	SmF (Small ribonucleoprotein particle protein SmF)	1	-0.46	-0.238	
20	eIF3i (eukaryotic translation initiation factor 3 subunit i)	1	4.3	4.3	
21	snRNP-U1-70K (small ribonucleoprotein particle U1 subunit 70K)	1	-2.13	0.249	0.662
22	snRNP-U1-70K (small ribonucleoprotein particle U1 subunit 70K)	2	6.64	-3.64	
23	CG31523	1	-0.0839	0.174	
24	CG31523	2	1.32	-0.0075	-0.235
25	up (upheld)	1	0.336	0.596	-2.39
26	ImpE1 (Ecdysone-inducible gene E1)	1	-0.213	-0.445	
27	ImpE1 (Ecdysone-inducible gene E1)	2	0.164	0.782	
28	CG11112	1	1.97	1.15	
29	fd3F (retired record)	1	-1.57		
30	fd3F (retired record)	2	1.59	-0.239	
31	lncRNA:CR31044 (long non-coding RNA::CR31044)	1	-1.08	0.837	
32	chrb (charybde)	1	0.259	-0.968	-0.675
33	lig (lingerer)	1	-1.28	-0.338	
34	lig (lingerer)	2	-0.593	2.61	
35	mino (minotaur)	1	1.11	-0.344	
36	CG17219	1	-0.302	-0.259	
37	Uba3 (Ubiquitin-like activating enzyme 3)	1	-2.47	0.927	
38	numb	1	-1.09	-1.5	
39	CG7394	1	1.25	1.11	
40	tup (tailup)	1	0.382	-0.367	
41	CG15617	1	-0.789	-0.43	
42	ast (asteroid)	1	-0.854	-1.63	
43	CG11586	1	-2.38	-0.0934	0.7
44	Cen (Centrocortin)	1	-0.955	-2.57	
45	CG13285	1	-0.661	-0.33	
46	MED8 (Mediator complex subunit 8)	1	0.281	0.535	
47	PGAP1 (Post-GPI attachment to proteins 1)	1	-2.06	0.83	0.134
48	CG32669	1	2.25	1.41	
49	T48 (Transcript 48)	1	-0.857	2.44	
50	CG6325	1	-0.0442	2.55	
51	Cp15 (Chorion protein 15)	1	0.442	0.236	
52	Prx3 (Peroxiredoxin 3)	1	-0.647	-0.156	
53	Acp76A (Accessory gland protein 76A)	1	-0.381	0.386	
54	Optix	1	1.07	0.756	
55	Optix	2	-0.99	0.822	
56	Optix	3	4.59	-1.08	
57	Dhc98D (Dynein heavy chain at 89D)	1	1.21	1.04	
58	shps (sheepish)	1	-0.897	0.111	
59	Irk1 (Inwardly rectifying potassium channel 1)	1	1.28	0.701	
60	CG14659	1	0.0511	-1.07	
61	ATP8A (ATPase 8A)	1	0.431	1.02	
62	ATP8A (ATPase 8A)	2	0.722	0.837	
63	ATP8A (ATPase 8A)	3	-2.42	-0.587	
64	CG6574	1	0.319	1.95	
65	Obp47a (Odorant-binding protein 47a)	1	-0.26	-1.75	
66	Him (Holes in muscle)	1	0.512	0.347	
67	CG5662	1	-1.55	-0.149	
68	CG18063	1	0.015	0.424	
69	ND-51L2 (NADH dehydrogenase (ubiquinone) 51 kDa subunit-like 2)	1	0.219	1.81	
70	CG32985	1	0.364	-0.317	
71	ValRS (Valyl-tRNA synthetase)	1	0.0302	1.34	
72	CG3420	1	1.4	2.03	
73	MED17 (Mediator complex subunit 17)	1	-0.903	-0.215	
74	CG16798	1	0.856	-0.862	
75	CG8089	1	-0.251	1.43	
76	CG3626	1	1.31	0.798	
77	CG4119	1	0.465	-0.3	-0.377
78	CG30274	1	-0.433	-0.0479	
79	gish (gilgamesh)	1	0.148	4.44	
80	CG13043	1	-2.06	-1.28	
81	CG4098	1	-0.834	-0.485	
82	Sec20 (Secretory 20)	1	-0.306	-0.431	
83	d-cup (davis-cup)	1	-1.82	-1.36	

A stretch taken from the entries so far, for reference:
no.	target gene	dsRNA no.	droplet/nuclear area B-score, replicate 1	droplet/nuclear area B-score, replicate 2	droplet/nuclear area B-score, replicate 3
58	shps (sheepish)	1	-0.897	0.111	
59	Irk1 (Inwardly rectifying potassium channel 1)	1	1.28	0.701	
60	CG14659	1	0.0511	-1.07	
61	ATP8A (ATPase 8A)	1	0.431	1.02	
62	ATP8A (ATPase 8A)	2	0.722	0.837	
63	ATP8A (ATPase 8A)	3	-2.42	-0.587	
64	CG6574	1	0.319	1.95	
65	Obp47a (Odorant-binding protein 47a)	1	-0.26	-1.75	
66	Him (Holes in muscle)	1	0.512	0.347	
67	CG5662	1	-1.55	-0.149	
68	CG18063	1	0.015	0.424	
69	ND-51L2 (NADH dehydrogenase (ubiquinone) 51 kDa subunit-like 2)	1	0.219	1.81	
70	CG32985	1	0.364	-0.317	
